Test results as given in the supplement of paper PMC10849652.
Some of the results follow.

Sequences of proteins named here, by UniProt entry; tags and fusion partners are left off. A change or cut given only in a name is not applied to a line headed by its entry.
UniProt Q6P2P2: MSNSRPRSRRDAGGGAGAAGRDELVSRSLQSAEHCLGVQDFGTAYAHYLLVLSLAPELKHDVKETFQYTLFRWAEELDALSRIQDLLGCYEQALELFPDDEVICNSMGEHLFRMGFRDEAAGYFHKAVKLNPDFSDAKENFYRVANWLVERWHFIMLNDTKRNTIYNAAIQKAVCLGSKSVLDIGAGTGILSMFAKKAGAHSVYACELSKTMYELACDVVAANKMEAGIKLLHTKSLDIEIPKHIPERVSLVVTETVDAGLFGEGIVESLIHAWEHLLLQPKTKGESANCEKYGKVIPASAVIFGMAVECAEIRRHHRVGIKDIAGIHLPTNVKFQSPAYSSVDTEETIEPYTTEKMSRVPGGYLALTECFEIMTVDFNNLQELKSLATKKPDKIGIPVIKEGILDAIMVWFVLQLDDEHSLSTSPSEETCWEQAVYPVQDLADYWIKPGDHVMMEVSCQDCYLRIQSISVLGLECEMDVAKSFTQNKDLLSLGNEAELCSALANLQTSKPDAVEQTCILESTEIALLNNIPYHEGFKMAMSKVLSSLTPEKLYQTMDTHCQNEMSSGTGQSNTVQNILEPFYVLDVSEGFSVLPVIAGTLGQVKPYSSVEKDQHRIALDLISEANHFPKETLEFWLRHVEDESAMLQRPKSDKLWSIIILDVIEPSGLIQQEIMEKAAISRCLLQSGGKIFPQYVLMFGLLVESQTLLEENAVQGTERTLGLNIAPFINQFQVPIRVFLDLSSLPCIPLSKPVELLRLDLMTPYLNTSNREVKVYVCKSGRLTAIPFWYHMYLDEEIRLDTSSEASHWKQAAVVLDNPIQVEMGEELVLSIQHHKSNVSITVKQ
UniProt Q8TF05: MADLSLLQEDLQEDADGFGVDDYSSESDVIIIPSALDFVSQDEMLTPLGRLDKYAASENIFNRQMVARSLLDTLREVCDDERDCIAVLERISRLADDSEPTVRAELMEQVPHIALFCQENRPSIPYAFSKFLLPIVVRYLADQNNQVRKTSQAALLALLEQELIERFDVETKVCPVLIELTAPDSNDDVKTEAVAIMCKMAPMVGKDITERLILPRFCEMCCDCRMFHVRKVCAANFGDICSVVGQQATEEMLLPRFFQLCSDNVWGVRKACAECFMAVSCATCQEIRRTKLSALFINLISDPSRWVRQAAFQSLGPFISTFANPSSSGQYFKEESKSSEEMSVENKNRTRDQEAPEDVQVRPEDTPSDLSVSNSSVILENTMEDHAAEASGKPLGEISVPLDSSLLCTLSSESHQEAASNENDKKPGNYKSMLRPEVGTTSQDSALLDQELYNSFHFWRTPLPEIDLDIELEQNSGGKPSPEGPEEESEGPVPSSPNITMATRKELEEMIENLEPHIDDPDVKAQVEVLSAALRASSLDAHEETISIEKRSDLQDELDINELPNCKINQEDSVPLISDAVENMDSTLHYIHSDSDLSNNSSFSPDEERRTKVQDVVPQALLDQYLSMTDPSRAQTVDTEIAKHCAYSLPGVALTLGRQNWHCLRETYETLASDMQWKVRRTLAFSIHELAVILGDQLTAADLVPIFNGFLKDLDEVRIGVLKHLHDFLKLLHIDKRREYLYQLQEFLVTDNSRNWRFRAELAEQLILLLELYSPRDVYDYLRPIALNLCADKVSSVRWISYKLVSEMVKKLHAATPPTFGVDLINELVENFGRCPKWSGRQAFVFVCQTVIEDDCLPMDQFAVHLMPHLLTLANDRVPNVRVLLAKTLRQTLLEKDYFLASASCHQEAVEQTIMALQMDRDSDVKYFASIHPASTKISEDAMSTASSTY
UniProt Q13162: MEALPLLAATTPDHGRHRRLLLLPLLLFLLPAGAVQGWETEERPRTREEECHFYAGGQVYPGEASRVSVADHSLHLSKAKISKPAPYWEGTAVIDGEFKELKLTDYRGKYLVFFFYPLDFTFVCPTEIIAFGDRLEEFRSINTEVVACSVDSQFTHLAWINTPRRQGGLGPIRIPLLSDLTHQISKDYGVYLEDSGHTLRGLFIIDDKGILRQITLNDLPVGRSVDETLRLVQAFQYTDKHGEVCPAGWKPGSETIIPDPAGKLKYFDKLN
UniProt P62714, whole entry, looked up: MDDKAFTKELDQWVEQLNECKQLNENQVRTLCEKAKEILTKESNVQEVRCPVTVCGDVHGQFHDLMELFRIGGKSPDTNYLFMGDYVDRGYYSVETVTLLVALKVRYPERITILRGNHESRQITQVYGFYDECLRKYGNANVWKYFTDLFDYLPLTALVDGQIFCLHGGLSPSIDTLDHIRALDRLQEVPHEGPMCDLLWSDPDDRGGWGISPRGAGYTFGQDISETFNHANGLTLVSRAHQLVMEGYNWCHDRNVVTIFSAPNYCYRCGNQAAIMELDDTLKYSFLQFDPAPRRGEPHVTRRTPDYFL
UniProt Q96SB3: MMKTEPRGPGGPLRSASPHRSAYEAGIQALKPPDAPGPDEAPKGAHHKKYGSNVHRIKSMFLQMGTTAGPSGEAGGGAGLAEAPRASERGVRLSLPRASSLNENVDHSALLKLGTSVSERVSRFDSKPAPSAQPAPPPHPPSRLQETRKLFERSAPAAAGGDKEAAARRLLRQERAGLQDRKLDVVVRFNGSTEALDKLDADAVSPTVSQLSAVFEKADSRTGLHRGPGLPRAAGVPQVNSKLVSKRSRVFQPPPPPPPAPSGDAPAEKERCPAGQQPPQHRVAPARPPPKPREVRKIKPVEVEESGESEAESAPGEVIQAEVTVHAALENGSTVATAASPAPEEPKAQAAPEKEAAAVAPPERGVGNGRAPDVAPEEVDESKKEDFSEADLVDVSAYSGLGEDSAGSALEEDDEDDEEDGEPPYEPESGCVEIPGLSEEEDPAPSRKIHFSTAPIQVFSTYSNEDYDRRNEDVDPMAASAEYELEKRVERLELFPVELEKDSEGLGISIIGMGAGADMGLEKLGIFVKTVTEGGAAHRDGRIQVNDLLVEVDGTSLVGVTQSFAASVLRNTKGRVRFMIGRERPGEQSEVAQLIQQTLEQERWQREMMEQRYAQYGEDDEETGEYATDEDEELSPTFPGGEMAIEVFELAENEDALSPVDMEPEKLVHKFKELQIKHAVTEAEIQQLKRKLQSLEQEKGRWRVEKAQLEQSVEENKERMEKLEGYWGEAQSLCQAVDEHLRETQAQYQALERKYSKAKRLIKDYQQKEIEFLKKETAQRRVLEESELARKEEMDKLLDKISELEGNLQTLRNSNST
UniProt Q92733: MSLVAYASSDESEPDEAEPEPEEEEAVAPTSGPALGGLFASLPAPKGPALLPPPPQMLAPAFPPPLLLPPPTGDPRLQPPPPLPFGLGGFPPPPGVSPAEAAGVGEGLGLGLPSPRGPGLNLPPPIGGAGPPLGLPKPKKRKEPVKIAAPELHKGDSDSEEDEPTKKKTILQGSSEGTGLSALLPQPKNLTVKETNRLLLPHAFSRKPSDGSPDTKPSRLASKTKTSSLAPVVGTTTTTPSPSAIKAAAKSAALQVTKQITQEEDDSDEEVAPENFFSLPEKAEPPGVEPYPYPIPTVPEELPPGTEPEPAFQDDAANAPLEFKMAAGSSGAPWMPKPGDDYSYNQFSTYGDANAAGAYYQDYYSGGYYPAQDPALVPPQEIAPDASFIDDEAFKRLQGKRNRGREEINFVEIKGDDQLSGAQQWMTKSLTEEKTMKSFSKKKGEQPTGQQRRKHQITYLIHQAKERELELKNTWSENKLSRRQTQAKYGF
UniProt Q9Y520: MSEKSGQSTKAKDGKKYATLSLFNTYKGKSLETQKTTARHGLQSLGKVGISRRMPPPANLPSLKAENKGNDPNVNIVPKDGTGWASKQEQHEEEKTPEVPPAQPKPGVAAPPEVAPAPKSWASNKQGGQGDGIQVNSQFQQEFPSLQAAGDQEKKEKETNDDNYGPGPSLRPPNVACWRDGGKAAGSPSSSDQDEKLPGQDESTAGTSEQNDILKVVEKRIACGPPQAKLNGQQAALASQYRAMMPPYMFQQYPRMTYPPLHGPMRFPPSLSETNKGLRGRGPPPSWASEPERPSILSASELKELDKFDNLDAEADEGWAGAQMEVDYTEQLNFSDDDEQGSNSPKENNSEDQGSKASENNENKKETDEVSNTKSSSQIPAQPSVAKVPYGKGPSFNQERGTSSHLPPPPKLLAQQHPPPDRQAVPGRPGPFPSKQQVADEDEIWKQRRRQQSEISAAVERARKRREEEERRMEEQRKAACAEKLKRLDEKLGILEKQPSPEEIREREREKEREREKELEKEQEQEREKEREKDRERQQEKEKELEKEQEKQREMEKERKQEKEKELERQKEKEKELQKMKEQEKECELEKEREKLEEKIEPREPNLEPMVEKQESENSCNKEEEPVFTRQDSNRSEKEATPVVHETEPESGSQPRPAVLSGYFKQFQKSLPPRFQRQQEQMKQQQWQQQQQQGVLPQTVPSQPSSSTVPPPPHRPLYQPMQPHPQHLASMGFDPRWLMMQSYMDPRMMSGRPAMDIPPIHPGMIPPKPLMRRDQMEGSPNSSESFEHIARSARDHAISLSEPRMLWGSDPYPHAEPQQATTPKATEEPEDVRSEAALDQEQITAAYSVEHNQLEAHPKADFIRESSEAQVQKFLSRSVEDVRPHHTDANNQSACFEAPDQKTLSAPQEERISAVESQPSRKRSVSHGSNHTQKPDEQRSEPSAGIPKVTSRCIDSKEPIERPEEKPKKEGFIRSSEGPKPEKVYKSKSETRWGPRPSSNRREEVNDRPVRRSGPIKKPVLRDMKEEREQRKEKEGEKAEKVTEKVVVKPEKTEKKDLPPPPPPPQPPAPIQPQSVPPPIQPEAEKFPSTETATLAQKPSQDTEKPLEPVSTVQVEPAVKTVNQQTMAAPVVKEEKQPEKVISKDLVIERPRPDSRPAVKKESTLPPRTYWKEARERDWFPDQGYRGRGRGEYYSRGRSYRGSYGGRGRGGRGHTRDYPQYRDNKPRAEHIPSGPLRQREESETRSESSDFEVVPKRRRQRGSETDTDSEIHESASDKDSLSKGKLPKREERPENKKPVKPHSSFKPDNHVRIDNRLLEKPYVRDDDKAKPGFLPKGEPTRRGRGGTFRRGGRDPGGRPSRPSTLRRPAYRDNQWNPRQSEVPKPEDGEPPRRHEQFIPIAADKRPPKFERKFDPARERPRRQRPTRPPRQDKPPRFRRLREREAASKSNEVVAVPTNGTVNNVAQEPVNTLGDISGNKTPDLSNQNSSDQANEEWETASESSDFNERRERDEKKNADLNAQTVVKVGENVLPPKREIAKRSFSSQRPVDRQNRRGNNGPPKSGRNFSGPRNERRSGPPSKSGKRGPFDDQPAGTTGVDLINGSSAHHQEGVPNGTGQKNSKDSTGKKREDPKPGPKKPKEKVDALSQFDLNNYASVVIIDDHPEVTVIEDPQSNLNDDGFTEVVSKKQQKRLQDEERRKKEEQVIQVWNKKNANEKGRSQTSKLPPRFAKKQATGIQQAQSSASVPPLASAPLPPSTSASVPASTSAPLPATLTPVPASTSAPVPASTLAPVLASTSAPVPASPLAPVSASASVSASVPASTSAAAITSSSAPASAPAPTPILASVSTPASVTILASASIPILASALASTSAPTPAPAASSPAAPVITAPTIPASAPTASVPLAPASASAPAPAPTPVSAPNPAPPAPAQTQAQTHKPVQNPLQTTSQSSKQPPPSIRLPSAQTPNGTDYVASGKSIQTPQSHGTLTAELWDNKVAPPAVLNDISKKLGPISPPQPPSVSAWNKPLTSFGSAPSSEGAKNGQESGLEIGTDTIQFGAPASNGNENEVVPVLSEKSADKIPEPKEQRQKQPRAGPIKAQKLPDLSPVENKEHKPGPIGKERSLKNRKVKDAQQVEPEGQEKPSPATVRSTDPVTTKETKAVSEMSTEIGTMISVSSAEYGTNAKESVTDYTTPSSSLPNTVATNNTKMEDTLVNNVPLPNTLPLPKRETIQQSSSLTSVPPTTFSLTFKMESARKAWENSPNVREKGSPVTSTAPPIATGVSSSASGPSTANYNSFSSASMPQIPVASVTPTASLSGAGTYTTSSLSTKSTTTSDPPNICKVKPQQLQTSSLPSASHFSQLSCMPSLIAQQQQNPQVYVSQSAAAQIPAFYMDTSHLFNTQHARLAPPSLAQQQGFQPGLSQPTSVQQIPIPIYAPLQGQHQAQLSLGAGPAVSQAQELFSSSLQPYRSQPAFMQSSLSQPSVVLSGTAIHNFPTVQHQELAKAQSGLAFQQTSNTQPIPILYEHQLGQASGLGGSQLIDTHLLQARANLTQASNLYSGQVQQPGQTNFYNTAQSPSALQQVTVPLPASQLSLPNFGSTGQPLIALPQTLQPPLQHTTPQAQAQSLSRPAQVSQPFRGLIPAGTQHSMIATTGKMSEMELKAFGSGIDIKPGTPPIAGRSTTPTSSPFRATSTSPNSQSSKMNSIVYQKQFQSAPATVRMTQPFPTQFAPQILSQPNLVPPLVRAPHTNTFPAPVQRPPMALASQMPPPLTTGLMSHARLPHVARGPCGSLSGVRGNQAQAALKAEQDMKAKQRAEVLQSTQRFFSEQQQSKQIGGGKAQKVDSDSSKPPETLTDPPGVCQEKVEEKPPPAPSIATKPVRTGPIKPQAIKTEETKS

Experiments:
Experiment in all cases: log2 fold change, soluble protein after heating vs DMSO (PISA); higher = thermal stabilisation; K562 cells, 10 uM, 30 min; active = over 0.2 and 3.5 SD of the protein, either way, in both replicates (recomputed)
[1] = compound: CC[C@@H]1C(=O)N(C)c2cnc(Nc3ccc(C(=O)NC4CCN(C)CC4)cc3OC)nc2N1C1CCCC1
How it was run: (§1)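 K562 cells at 2×10^6 cells/mL were treated for 30 min with 10 μM compound, and aliquots were heated for 3 min over 48°C-58°C before pooling. Extraction used PBS with 0.5% NP-40 at 4°C, and soluble protein was the supernatant after 21,000xg for 90 min, measured by TMTpro 16plex LC-MS/MS with channel sums equalised. Thermal stability values, relative to control samples and from duplicates, are log2 fold changes.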

volasertib = compound: CC[C@@H]1C(=O)N(C)c2cnc(Nc3ccc(C(=O)N[C@H]4CC[C@H](N5CCN(CC6CC6)CC5)CC4)cc3OC)nc2N1C(C)C [volasertib]
How it was run: as §1

[2] = compound: CC[C@H](C)N1C=C(C2=C(C=C(C=C21)C3=CN=C(C=C3)N4CCNCC4)C(=O)NCC5=C(C=C(NC5=O)C)C)C
How it was run: as §1

epoxomicin = compound: CC[C@H](C)[C@@H](C(=O)N[C@@H]([C@@H](C)O)C(=O)N[C@@H](CC(C)C)C(=O)[C@]1(CO1)C)NC(=O)[C@H]([C@@H](C)CC)N(C)C(=O)C [epoxomicin]
How it was run: as §1

[3] = compound: CCn1c(C(=O)N(C2CC2)C2CC2)cc2c3c(ncn3C)c(Nc3cc(C)n(C)n3)nc21
How it was run: as §1

[4] = compound: CCn1cc(-c2ccnc3[nH]c(-c4cccc(CN(C)C)c4)cc23)c(-c2ccc(NC(=O)N(C)C)cc2)n1
How it was run: as §1

[5] = compound: CN(C)CC(=O)Nc1ccc2[nH]c(=O)c3ccccc3c2c1
How it was run: as §1

rosiglitazone = compound: CN(CCOC1=CC=C(C=C1)C[C@H]2C(=O)NC(=O)S2)C3=CC=CC=N3 (racemic) [rosiglitazone]
How it was run: as §1

[6] = compound: CN1C2=C(C3=C1C(=O)N(N=C3)CC4=CC(=CC=C4)N)SC(=C2)S(=O)C
How it was run: as §1

[7] = compound: CN1CCC(CNc2ccc3ncc(-c4cccc(OC(F)(F)F)c4)n3n2)CC1
How it was run: as §1

saracatinib = compound: CN1CCN(CCOc2cc(OC3CCOCC3)c3c(Nc4c(Cl)ccc5c4OCO5)ncnc3c2)CC1 [saracatinib]
How it was run: as §1

sotrastaurin = compound: CN1CCN(c2nc(C3=C(c4c[nH]c5ccccc45)C(=O)NC3=O)c3ccccc3n2)CC1 [sotrastaurin]
How it was run: as §1

alvocidib = compound: CN1CC[C@H](c2c(O)cc(O)c3c(=O)cc(-c4ccccc4Cl)oc23)[C@H](O)C1 [alvocidib]
How it was run: as §1

Tubastatin A = compound: CN1CCc2c(c3ccccc3n2Cc2ccc(C(=O)NO)cc2)C1 [Tubastatin A]
How it was run: as §1

[8] = compound: CNC(=O)C1=CC=CC=C1NC2=NC(=NC=C2Cl)NC3=C(C=C(C=C3)N4CCOCC4)OC
How it was run: as §1

defactinib = compound: CNC(=O)c1ccc(Nc2ncc(C(F)(F)F)c(NCc3nccnc3N(C)S(C)(=O)=O)n2)cc1 [defactinib]
How it was run: as §1

rucaparib = compound: CNCc1ccc(-c2[nH]c3cc(F)cc4c3c2CCNC4=O)cc1 [rucaparib]
How it was run: as §1

[9] = compound: CNc1nc(-c2ccc3c(N)n[nH]c3c2)cc(N2C[C@@H](C(=O)NC3CCCCC3)CC[C@H]2C)n1
How it was run: as §1

encorafenib = compound: COC(=O)N[C@@H](C)CNc1nccc(-c2cn(C(C)C)nc2-c2cc(Cl)cc(NS(C)(=O)=O)c2F)n1 [encorafenib]
How it was run: as §1

[10] = compound: COC(=O)[C@H](CCSC)NC(=O)C1=C(C=C(C=C1)NC[C@H](CS)N)C2=CC=CC=C2
How it was run: as §1

Measured: log2 fold change

PPME1 (UniProt Q9Y570)
inactive: [1] 0.001 | volasertib -0.092 | [2] 0.017 | epoxomicin 0.019 | [3] -0.024 | [4] -0.007 | [5] -0.037 | rosiglitazone 0.027 | [6] -0.087 | [7] -0.019 | saracatinib -0.004 | sotrastaurin 0.013 | alvocidib -0.043 | Tubastatin A -0.006 | [8] 0.021 | defactinib -0.066 | rucaparib -0.063 | [9] -0.029 | encorafenib -0.001 | [10] 0.013

PRMT9 (UniProt Q6P2P2)
inactive: [1] -0.158 | volasertib -0.207 | [2] 0.04 | epoxomicin 0.07 | [3] -0.03 | [4] 0.001 | [5] 0.013 | rosiglitazone 0.064 | [6] -0.045 | [7] -0.041 | saracatinib 0.07 | sotrastaurin 0.233 | alvocidib 0.005 | Tubastatin A -0.031 | [8] 0.065 | defactinib -0.025 | rucaparib 0.083 | [9] 0.013 | encorafenib -0.098 | [10] -0.018

PRPF19 (UniProt Q9UMS4)
inactive: [1] 0.093 | volasertib 0.132 | [2] -0.055 | epoxomicin -0.036 | [3] 0.024 | [4] 0.034 | [5] -0.038 | rosiglitazone -0.034 | [6] -0.044 | [7] 0.105 | saracatinib 0.046 | sotrastaurin 0.023 | alvocidib 0.123 | Tubastatin A -0.108 | [8] -0.023 | defactinib 0.062 | rucaparib -0.006 | [9] -0.045 | encorafenib -0.029 | [10] 0.012

PPP6C isoform 3 (UniProt O00743)
inactive: [1] -0.004 | volasertib -0.023 | [2] -0.025 | epoxomicin -0.035 | [3] 0.024 | [4] 0.007 | [5] -0.051 | rosiglitazone -0.02 | [6] 0.018 | [7] -0.013 | saracatinib 0.052 | sotrastaurin 0.033 | alvocidib 0.013 | Tubastatin A -0.071 | [8] 0.002 | defactinib 0.002 | rucaparib -0.005 | [9] -0.025 | encorafenib 0.004 | [10] 0.051

PPP4R1 (UniProt Q8TF05)
inactive: [1] -0.071 | volasertib -0.17 | [2] 0.045 | epoxomicin 0.048 | [3] 0.004 | [4] -0.06 | [5] 0.013 | rosiglitazone 0.045 | [6] -0.083 | [7] -0.068 | saracatinib 0.019 | sotrastaurin -0.03 | alvocidib -0.047 | Tubastatin A -0.041 | [8] 0.027 | defactinib -0.035 | rucaparib 0.014 | [9] 0.034 | encorafenib -0.018 | [10] -0.029

PREPL (UniProt Q4J6C6)
inactive: [1] -0.036 | volasertib -0.07 | [2] 0.028 | epoxomicin 0.053 | [3] -0.033 | [4] -0.068 | [5] -0.028 | rosiglitazone 0.005 | [6] -0.057 | [7] -0.146 | saracatinib -0.001 | sotrastaurin 0.006 | alvocidib -0.057 | Tubastatin A 0.011 | [8] -0.02 | defactinib -0.059 | rucaparib 0.026 | [9] -0.021 | encorafenib 0.018 | [10] 0.017

PRDX4 (UniProt Q13162)
inactive: [1] -0.001 | volasertib 0.055 | [2] -0.063 | epoxomicin 0.008 | [3] -0.001 | [4] -0.011 | [5] 0.007 | rosiglitazone -0.005 | [6] -0.07 | [7] 0.005 | saracatinib -0.017 | sotrastaurin 0.006 | alvocidib -0.031 | Tubastatin A -0.032 | [8] -0.001 | defactinib -0.016 | rucaparib 0.048 | [9] -0.035 | encorafenib 0.011 | [10] 0.022

PPP2R5D (UniProt Q14738)
inactive: [1] -0.1 | volasertib -0.196 | [2] 0.091 | epoxomicin 0.011 | [3] 0.003 | [4] -0.045 | [5] 0.039 | rosiglitazone 0.023 | [6] -0.009 | [7] -0.045 | saracatinib 0.042 | sotrastaurin -0.121 | alvocidib -0.074 | Tubastatin A 0.06 | [8] 0.069 | defactinib -0.029 | rucaparib 0.019 | [9] -0.014 | encorafenib 0.08 | [10] -0.056

PPP2CB (UniProt P62714)
inactive: [1] 0.018 | volasertib 0.021 | [2] -0.023 | epoxomicin -0.027 | [3] -0.024 | [4] 0.015 | [5] -0.033 | rosiglitazone -0.008 | [6] -0.051 | [7] 0.034 | saracatinib 0.035 | sotrastaurin 0.044 | alvocidib -0.01 | Tubastatin A -0.019 | [8] -0.017 | defactinib 0 | rucaparib -0.027 | [9] -0.036 | encorafenib 0.006 | [10] 0.051

PPP1R9B (UniProt Q96SB3)
inactive: [1] 0.118 | volasertib -0.022 | [2] -0.24 | epoxomicin -0.102 | [3] -0.057 | [4] -0.024 | [5] -0.083 | rosiglitazone -0.086 | [6] 0.135 | [7] -0.032 | saracatinib -0.027 | sotrastaurin 0.152 | alvocidib 0.128 | Tubastatin A -0.183 | [8] -0.085 | defactinib 0 | rucaparib 0.059 | [9] -0.049 | encorafenib 0.128 | [10] 0.083

PPP1R2 (UniProt P41236)
inactive: [1] 0.054 | volasertib 0.103 | [2] -0.021 | epoxomicin -0.033 | [3] 0.039 | [4] 0.039 | [5] -0.018 | rosiglitazone -0.004 | [6] -0.073 | [7] -0.051 | saracatinib 0.01 | sotrastaurin 0.08 | alvocidib -0.007 | Tubastatin A 0.031 | [8] -0.035 | defactinib -0.031 | rucaparib -0.041 | [9] -0.01 | encorafenib -0.027 | [10] 0.015

Copied from above (four entries):
PPP2R5D (UniProt Q14738)
inactive: [1] -0.1 | volasertib -0.196 | [2] 0.091 | epoxomicin 0.011 | [3] 0.003 | [4] -0.045 | [5] 0.039 | rosiglitazone 0.023 | [6] -0.009 | [7] -0.045 | saracatinib 0.042 | sotrastaurin -0.121 | alvocidib -0.074 | Tubastatin A 0.06 | [8] 0.069 | defactinib -0.029 | rucaparib 0.019 | [9] -0.014 | encorafenib 0.08 | [10] -0.056

PPP2CB (UniProt P62714)
inactive: [1] 0.018 | volasertib 0.021 | [2] -0.023 | epoxomicin -0.027 | [3] -0.024 | [4] 0.015 | [5] -0.033 | rosiglitazone -0.008 | [6] -0.051 | [7] 0.034 | saracatinib 0.035 | sotrastaurin 0.044 | alvocidib -0.01 | Tubastatin A -0.019 | [8] -0.017 | defactinib 0 | rucaparib -0.027 | [9] -0.036 | encorafenib 0.006 | [10] 0.051

PPP1R9B (UniProt Q96SB3)
inactive: [1] 0.118 | volasertib -0.022 | [2] -0.24 | epoxomicin -0.102 | [3] -0.057 | [4] -0.024 | [5] -0.083 | rosiglitazone -0.086 | [6] 0.135 | [7] -0.032 | saracatinib -0.027 | sotrastaurin 0.152 | alvocidib 0.128 | Tubastatin A -0.183 | [8] -0.085 | defactinib 0 | rucaparib 0.059 | [9] -0.049 | encorafenib 0.128 | [10] 0.083

PPP1R2 (UniProt P41236)
inactive: [1] 0.054 | volasertib 0.103 | [2] -0.021 | epoxomicin -0.033 | [3] 0.039 | [4] 0.039 | [5] -0.018 | rosiglitazone -0.004 | [6] -0.073 | [7] -0.051 | saracatinib 0.01 | sotrastaurin 0.08 | alvocidib -0.007 | Tubastatin A 0.031 | [8] -0.035 | defactinib -0.031 | rucaparib -0.041 | [9] -0.01 | encorafenib -0.027 | [10] 0.015

Additional records

PRRC1 (UniProt Q96M27)
inactive: [1] 0.027 | volasertib 0.064 | [2] -0.047 | epoxomicin -0.047 | [3] 0.025 | [4] -0.017 | [5] -0.057 | rosiglitazone -0.024 | [6] -0.038 | [7] -0.013 | saracatinib -0.009 | sotrastaurin 0.067 | alvocidib 0.003 | Tubastatin A -0.035 | [8] -0.042 | defactinib 0.003 | rucaparib 0.012 | [9] -0.037 | encorafenib -0.015 | [10] 0.04

PRCC (UniProt Q92733)
inactive: [1] -0.043 | volasertib -0.042 | [2] 0.008 | epoxomicin -0.024 | [3] -0.019 | [4] 0.009 | [5] 0.005 | rosiglitazone -0.021 | [6] 0.005 | [7] 0.004 | saracatinib -0.001 | sotrastaurin 0.035 | alvocidib 0.017 | Tubastatin A -0.005 | [8] -0.024 | defactinib -0.057 | rucaparib -0.025 | [9] -0.102 | encorafenib -0.035 | [10] 0.02

PRPF8 (UniProt Q6P2Q9)
inactive: [1] 0.078 | volasertib -0.08 | [2] 0.022 | epoxomicin -0.09 | [3] -0.027 | [4] 0.045 | [5] -0.033 | rosiglitazone -0.027 | [6] 0.117 | [7] 0.133 | saracatinib 0.029 | sotrastaurin -0.015 | alvocidib 0.03 | Tubastatin A -0.021 | [8] -0.016 | defactinib 0.116 | rucaparib 0.071 | [9] -0.054 | encorafenib 0.016 | [10] -0.006

PPP3R1 (UniProt P63098)
inactive: [1] -0.007 | volasertib -0.024 | [2] 0.035 | epoxomicin 0.065 | [3] 0 | [4] 0.028 | [5] 0.014 | rosiglitazone 0.006 | [6] -0.041 | [7] -0.159 | saracatinib 0.075 | sotrastaurin 0.027 | alvocidib -0.003 | Tubastatin A 0.053 | [8] 0.082 | defactinib -0.03 | rucaparib -0.012 | [9] -0.058 | encorafenib 0.018 | [10] -0.01

PRRC2C isoform 7 (UniProt Q9Y520)
inactive: [1] 0.165 | volasertib 0.215 | [2] -0.017 | epoxomicin -0.133 | [3] -0.015 | [4] 0.16 | [5] -0.068 | rosiglitazone -0.088 | [6] 0.178 | [7] 0.235 | saracatinib -0.012 | sotrastaurin 0.034 | alvocidib 0.21 | Tubastatin A 0.035 | [8] -0.011 | defactinib 0.165 | rucaparib 0.199 | [9] 0.042 | encorafenib 0.061 | [10] 0.03
